Results are given in words; binding and its absence hold for the method and conditions named. Binding seen in cells or lysates may run through a third protein. Here binding means that the protein was enriched with, or labelled near, the bait; the list need not be complete.
target: Pumilio1 (Pum1) (mouse (endogenous in brain)) (UniProt Q80U78); assay: affinity purification with mass spectrometry; IP against endogenous Pum1 (goat anti-PUM1, Dynabeads Protein G) from lysates of 10-week-old wild-type mouse whole brain, cerebellum, hippocampus and cortex; lysis and wash buffer 200 mM NaCl2, 100 mM NaPO4, 20 mM Hepes pH 7.4, 1% Triton X; IP against IgG as negative control; LC-MS/MS

The chains behind the UniProt entries cited, without tags or fusion partners.
UniProt Q80U78: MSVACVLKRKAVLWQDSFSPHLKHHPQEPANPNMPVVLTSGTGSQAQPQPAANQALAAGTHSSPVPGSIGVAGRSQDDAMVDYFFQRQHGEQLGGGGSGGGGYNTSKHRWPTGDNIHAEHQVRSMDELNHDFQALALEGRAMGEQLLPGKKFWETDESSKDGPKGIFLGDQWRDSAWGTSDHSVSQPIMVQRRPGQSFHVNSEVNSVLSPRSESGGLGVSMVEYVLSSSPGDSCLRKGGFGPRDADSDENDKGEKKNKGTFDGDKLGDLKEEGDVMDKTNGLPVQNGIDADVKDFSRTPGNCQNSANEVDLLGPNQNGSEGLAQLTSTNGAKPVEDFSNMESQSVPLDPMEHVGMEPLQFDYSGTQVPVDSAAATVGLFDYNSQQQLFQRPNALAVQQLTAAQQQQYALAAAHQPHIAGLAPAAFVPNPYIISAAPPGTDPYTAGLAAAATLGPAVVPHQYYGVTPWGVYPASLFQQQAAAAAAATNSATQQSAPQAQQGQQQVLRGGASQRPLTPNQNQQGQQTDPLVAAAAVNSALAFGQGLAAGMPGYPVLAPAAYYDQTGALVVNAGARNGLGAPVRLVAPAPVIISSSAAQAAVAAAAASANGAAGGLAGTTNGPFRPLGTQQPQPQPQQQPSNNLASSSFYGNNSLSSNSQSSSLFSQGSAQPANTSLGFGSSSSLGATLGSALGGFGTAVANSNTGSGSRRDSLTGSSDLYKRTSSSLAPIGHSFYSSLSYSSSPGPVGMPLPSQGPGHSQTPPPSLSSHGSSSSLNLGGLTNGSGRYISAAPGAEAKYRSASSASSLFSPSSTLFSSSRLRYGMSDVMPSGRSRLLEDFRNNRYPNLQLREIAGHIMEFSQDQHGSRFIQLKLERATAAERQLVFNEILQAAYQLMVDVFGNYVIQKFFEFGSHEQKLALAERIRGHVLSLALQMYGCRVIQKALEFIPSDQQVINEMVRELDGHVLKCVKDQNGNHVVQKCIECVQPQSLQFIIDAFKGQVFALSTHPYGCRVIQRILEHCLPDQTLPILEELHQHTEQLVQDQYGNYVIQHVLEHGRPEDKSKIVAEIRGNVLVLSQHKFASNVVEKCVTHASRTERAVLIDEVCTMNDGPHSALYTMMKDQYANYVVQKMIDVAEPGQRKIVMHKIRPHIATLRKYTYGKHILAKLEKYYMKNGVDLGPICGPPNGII
UniProt Q8JZQ9: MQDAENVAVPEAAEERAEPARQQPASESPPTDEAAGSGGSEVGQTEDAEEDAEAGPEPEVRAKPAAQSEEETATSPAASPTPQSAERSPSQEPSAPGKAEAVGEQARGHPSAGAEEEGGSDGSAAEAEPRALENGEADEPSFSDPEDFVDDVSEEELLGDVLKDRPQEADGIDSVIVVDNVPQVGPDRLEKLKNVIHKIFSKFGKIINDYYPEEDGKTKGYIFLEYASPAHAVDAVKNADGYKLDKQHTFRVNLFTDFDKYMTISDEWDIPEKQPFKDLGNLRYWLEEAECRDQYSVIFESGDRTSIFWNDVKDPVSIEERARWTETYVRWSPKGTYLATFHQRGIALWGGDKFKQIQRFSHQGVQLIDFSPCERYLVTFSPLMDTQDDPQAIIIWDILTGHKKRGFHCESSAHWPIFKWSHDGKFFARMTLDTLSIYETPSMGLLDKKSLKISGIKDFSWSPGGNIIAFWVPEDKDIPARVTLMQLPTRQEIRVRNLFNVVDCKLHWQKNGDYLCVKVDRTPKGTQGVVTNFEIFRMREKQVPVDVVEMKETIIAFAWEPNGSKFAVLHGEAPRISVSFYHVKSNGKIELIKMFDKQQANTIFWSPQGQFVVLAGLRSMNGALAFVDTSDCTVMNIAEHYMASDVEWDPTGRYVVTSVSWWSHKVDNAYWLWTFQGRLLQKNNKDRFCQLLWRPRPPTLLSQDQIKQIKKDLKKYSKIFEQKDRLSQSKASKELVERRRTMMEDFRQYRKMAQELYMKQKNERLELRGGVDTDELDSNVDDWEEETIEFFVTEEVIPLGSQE
UniProt Q8CJG0: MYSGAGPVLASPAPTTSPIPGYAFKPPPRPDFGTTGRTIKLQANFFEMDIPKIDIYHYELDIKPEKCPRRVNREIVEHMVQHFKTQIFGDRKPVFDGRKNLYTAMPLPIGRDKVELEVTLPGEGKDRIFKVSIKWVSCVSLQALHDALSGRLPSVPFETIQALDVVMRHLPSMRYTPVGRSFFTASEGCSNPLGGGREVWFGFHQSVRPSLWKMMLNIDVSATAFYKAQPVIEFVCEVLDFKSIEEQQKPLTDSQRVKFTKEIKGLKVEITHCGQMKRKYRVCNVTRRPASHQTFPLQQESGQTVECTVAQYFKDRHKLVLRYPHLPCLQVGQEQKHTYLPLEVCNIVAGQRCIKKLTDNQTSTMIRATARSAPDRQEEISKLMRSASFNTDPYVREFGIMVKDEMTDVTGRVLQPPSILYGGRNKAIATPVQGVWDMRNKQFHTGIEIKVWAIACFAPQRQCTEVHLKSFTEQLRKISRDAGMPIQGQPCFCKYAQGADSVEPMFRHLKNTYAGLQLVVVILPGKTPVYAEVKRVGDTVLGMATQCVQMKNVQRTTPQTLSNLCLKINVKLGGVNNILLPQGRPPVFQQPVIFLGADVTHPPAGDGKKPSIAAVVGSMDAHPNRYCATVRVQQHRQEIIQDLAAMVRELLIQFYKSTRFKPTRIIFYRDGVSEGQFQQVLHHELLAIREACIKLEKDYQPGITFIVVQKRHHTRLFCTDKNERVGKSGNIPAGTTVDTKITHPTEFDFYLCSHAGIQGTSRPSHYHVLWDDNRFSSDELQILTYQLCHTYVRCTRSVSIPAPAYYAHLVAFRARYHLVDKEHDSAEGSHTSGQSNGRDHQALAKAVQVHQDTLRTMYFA
UniProt Q8C5L3: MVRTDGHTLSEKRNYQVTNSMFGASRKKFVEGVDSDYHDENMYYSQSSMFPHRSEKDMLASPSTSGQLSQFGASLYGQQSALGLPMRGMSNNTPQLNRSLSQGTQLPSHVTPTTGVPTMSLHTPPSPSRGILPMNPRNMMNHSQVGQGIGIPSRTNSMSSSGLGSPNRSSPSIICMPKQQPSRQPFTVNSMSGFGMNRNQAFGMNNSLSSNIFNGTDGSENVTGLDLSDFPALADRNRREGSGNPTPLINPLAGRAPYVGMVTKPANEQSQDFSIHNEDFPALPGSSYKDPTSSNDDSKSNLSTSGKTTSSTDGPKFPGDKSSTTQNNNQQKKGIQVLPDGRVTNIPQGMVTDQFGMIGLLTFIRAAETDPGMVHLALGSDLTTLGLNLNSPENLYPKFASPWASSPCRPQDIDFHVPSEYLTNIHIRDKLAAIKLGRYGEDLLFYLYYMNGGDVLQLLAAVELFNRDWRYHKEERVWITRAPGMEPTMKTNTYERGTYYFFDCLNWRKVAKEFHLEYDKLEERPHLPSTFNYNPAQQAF
UniProt B2RQC6: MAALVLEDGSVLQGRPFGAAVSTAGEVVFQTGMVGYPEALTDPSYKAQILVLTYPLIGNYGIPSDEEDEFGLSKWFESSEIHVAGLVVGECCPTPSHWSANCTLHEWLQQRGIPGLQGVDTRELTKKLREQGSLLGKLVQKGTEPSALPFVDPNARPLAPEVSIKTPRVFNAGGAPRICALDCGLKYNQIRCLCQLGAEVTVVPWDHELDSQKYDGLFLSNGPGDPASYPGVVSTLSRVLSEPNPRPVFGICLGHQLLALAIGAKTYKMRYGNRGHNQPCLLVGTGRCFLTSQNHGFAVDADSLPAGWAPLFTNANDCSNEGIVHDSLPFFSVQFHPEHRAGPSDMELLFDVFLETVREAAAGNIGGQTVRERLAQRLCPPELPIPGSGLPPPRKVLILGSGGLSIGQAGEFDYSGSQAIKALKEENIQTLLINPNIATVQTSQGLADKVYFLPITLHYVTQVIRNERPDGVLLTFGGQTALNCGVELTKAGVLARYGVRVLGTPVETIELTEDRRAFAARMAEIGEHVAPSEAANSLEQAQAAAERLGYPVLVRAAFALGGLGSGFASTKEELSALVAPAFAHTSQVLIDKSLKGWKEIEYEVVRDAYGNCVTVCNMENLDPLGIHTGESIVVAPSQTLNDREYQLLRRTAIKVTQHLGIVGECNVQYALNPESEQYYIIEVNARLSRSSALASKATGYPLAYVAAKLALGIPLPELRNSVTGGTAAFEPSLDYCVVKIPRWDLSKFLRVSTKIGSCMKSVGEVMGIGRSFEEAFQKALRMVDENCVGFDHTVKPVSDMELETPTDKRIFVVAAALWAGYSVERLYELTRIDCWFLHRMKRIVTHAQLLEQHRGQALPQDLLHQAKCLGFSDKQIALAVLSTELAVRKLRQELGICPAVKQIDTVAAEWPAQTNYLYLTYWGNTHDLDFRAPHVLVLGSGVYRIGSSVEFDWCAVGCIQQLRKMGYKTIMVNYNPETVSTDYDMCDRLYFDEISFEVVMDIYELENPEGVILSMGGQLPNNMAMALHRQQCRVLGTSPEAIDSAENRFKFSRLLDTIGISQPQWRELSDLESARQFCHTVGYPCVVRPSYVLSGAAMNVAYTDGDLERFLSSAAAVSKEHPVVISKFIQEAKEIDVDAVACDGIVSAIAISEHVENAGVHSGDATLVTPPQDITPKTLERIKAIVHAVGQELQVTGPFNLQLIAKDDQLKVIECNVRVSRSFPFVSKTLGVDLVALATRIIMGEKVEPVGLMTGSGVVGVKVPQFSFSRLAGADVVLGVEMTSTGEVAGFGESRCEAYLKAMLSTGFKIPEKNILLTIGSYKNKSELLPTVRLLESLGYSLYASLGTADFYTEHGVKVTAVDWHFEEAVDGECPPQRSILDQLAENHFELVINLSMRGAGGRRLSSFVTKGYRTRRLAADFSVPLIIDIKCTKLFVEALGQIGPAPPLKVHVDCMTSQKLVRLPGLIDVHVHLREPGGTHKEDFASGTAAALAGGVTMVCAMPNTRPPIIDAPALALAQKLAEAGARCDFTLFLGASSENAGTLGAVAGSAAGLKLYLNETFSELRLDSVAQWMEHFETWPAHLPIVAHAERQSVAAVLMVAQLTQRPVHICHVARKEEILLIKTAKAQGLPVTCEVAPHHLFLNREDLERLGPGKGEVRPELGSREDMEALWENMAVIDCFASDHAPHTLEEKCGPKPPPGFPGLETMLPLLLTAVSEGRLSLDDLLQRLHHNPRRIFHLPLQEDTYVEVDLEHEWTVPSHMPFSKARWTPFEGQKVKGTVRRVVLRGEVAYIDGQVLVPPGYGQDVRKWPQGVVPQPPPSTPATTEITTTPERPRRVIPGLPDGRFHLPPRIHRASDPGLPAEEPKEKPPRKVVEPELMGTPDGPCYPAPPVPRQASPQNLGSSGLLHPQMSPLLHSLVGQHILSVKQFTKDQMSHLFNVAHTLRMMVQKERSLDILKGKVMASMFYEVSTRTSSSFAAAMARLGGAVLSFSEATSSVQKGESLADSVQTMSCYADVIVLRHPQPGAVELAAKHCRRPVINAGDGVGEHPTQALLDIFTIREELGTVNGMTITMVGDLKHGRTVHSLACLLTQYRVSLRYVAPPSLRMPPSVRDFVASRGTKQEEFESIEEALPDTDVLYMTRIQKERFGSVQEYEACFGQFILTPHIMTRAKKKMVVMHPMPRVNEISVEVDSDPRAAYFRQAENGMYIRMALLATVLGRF
UniProt Q8BH15: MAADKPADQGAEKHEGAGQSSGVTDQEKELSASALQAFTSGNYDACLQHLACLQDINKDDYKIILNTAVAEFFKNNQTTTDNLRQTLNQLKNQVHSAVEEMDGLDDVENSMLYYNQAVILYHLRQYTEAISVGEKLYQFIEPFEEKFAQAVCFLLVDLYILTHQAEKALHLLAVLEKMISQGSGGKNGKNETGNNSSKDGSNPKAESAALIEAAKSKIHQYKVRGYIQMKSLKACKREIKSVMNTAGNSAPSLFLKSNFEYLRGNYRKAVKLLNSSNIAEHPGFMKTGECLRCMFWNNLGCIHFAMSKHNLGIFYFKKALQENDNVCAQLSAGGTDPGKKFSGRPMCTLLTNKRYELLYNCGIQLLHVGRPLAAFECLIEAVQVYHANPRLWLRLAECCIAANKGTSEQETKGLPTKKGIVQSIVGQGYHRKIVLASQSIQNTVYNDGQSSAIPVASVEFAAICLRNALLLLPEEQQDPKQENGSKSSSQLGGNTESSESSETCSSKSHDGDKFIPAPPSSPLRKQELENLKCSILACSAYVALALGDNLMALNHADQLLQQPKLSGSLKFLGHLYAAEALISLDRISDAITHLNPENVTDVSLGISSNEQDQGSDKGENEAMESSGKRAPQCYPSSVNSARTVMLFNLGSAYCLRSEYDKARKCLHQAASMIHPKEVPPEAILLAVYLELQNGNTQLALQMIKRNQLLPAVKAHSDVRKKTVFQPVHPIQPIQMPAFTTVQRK

binding	Molecule
binds	Eif3b (from UniProt Q8JZQ9 1-803)
binds	Fzr1 (from UniProt Q9R1K5 1-493)
binds	Cnot1 (from UniProt Q6ZQ08 1-2375)
binds	Rptor (from UniProt Q8K4Q0 1-1335)
binds	Ago2 (from UniProt Q8CJG0 1-860)
binds	Cnot2 (from UniProt Q8C5L3 1-540)
binds	Cad (from UniProt B2RQC6 1-2225)
binds	Pum2 (from UniProt Q80U58 1-1066)
binds	Anapc1 (from UniProt P53995 1-1944)
binds	Cnot10 (from UniProt Q8BH15 1-744)

target: Pumilio1 (Pum1) (mouse (endogenous in brain)) (UniProt Q80U78); assay: as above; remark: another data set of the same source

binding	Molecule
binds	Rbfox2 (protein, UniProt Q8BP71 1-449) MAEGGQAQQQPPQLGPGAAARGMKRESEVELPVPGAGADGPEPGLSKRPRTEEAADGGMQNEPLTPGYHGFPARDGQGNQEPTTTPDAMVQPFTTIPFPPPPQNGIPTEYGVPHTQDYAGQTSEHNLTLYGSTQPHGEQSSNSPSNQNGSLTQTEGGAQTDGQQSQTQSSENSESKSTPKRLHVSNIPFRFRDPDLRQMFGQFGKILDVEIIFNERGSKGFGFVTFENSADADRAREKLHGTVVEGRKIEVNNATARVMTNKKMVTPYANGWKLSPVVGAVYGPELYAASSFQADVSLGNEAAVPLSGRGGINTYIPLISLPLVPGFPYPTAATTAAAFRGAHLRGRGRTVYGAVRAVPPTAIPAYPGVVYQDGFYGADLYGGYAAYRYAQPATATAATAAAAAAAAYSDGYGRVYTADPYHALAPAASYGVGAVASLYRGGYSRFAPY
binds	Rbfox1 (protein, UniProt Q9JJ43 1-396) MNCEREQLRGNQEAAAAPDTMAQPYASAQFAPPQNGIPAEYTAPHPHPAPEYTGQTTVPDHTLNLYPPTQTHSEQSADTSAQTVSGTATQTDDAAPTDGQPQTQPSENTESKSQPKRLHVSNIPFRFRDPDLRQMFGQFGKILDVEIIFNERGSKGFGFVTFENSADADRAREKLHGTVVEGRKIEVNNATARVMTNKKTVNPYTNGWKLNPVVGAVYSPDFYAGTVLLCQANQEGSSMYSGPSSLVYTSAMPGFPYPAATAAAAYRGAHLRGRGRTVYNTFRAAAPPPPIPAYGGVVYQDGFYGADIYGGYAAYRYAQPTPATAAAYSDSYGRVYAADPYHHTLAPAPTYGVGAMNAFAPLTDAKTRSHADDVGLVLSSLQASIYRGGYNRFAPY
binds	Rbfox3 (protein, UniProt Q8BIF2 1-374) MAQPYPPAQYPPPPQNGIPAEYAPPPPHPTQDYSGQTPVPPEHGMTLYTPAQTHPEQPGTEASTQPIAGTQTVPQADEAAQTDNQQLHPSDPTEKQQPKRLHVSNIPFRFRDPDLRQMFGQFGKILDVEIIFNERGSKGFGFVTFETSSDADRAREKLNGTIVEGRKIEVNNATARVMTNKKPGNPYANGWKLNPVVGTVYGPEFYAVTSFPYPTTGTAVAYRGAHLRGRGRAVYNTFRAAPPPPPIPTYGAALEQTLVKMPVPWAGLAPCPLPPQQTPEPAYPTSPAFPPLSCPFASRVVYQDGFYGAEIYGGYAAYRYAQPAAATAAAYSDSYGRVYAAADPYHHTIGPTATYSIGTMASLCRGGYSRFTPY
